The text below walks through data of article PMC9408947.

The chains behind the UniProt entries cited, without tags or fusion partners. Where a name states a change or a piece, a line headed by the entry shows the natural chain unless it says otherwise. A line that says so, or that is headed by a name, gives the form on record, which may keep a tag or linker. Residues count along the entry.
GRP78-NV (full-length GRP78 with N-Venus, BiFC construct) (P11021, residues 19-654): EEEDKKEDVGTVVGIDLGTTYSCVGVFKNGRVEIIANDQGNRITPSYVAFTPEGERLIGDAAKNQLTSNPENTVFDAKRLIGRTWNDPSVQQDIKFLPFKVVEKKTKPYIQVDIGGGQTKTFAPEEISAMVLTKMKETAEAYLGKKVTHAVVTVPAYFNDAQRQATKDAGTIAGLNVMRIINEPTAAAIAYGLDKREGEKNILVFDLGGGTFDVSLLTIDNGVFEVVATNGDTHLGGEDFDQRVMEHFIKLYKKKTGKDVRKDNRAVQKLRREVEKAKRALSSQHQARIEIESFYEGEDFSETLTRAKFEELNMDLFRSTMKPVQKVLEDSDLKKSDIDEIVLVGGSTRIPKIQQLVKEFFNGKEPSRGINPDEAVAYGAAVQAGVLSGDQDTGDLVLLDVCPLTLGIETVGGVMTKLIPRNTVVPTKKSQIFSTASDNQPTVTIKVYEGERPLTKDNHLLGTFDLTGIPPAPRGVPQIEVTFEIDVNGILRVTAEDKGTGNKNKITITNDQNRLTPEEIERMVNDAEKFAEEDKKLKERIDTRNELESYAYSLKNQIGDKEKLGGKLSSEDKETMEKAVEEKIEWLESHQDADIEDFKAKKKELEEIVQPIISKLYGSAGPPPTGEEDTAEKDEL
nucleotide-binding domain of GRP78 (BiFC construct) (P11021, form named): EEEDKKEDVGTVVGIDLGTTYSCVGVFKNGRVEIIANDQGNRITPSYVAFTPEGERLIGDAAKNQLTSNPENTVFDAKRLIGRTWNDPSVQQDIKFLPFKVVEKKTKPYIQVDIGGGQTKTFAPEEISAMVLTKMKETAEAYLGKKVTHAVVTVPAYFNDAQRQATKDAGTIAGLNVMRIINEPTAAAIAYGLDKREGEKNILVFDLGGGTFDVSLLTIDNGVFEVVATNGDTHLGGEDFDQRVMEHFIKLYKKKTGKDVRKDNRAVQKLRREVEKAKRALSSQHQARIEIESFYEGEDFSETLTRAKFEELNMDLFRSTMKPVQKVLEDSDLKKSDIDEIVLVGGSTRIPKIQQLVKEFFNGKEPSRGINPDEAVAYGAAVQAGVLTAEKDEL
UniProt P05412: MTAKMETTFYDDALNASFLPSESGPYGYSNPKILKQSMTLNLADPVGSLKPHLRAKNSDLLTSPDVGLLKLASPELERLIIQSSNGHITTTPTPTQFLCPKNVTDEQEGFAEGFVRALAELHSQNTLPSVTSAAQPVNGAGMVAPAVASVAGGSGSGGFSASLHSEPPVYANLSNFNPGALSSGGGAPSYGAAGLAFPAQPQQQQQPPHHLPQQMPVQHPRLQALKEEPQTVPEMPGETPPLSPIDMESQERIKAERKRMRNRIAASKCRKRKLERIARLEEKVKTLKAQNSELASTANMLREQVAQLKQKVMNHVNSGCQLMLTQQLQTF
UniProt Q49AH0, residues 25-187: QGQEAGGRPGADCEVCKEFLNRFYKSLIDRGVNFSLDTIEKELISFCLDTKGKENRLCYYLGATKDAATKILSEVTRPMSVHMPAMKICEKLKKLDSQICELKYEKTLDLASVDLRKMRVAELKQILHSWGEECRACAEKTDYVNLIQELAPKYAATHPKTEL
UniProt P61244: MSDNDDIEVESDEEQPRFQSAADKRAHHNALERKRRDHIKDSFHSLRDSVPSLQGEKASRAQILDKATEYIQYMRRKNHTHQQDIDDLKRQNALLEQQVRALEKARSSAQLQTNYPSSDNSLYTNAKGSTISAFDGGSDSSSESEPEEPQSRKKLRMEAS

Holding throughout (assay): split reporter; split Venus BiFC; HEK293 cells co-transfected with pEZY BiFC N-Venus and C-Venus plasmids, fixed 20-24 h after transfection, confocal microscopy
Test [1] deals with nucleotide-binding domain of GRP78 (BiFC construct) (UniProt P11021).
For test [2], the target named is GRP78-NV (full-length GRP78 with N-Venus, BiFC construct) (UniProt P11021).
Test [3] concerns the target Jun-NV (transcription factor Jun with N-Venus, BiFC construct) (UniProt P05412).
The target of test [4] is T1, GRP170-CV (GRP170 with C-Venus, BiFC construct) (UniProt Q9Y4L1).
T1 sequence: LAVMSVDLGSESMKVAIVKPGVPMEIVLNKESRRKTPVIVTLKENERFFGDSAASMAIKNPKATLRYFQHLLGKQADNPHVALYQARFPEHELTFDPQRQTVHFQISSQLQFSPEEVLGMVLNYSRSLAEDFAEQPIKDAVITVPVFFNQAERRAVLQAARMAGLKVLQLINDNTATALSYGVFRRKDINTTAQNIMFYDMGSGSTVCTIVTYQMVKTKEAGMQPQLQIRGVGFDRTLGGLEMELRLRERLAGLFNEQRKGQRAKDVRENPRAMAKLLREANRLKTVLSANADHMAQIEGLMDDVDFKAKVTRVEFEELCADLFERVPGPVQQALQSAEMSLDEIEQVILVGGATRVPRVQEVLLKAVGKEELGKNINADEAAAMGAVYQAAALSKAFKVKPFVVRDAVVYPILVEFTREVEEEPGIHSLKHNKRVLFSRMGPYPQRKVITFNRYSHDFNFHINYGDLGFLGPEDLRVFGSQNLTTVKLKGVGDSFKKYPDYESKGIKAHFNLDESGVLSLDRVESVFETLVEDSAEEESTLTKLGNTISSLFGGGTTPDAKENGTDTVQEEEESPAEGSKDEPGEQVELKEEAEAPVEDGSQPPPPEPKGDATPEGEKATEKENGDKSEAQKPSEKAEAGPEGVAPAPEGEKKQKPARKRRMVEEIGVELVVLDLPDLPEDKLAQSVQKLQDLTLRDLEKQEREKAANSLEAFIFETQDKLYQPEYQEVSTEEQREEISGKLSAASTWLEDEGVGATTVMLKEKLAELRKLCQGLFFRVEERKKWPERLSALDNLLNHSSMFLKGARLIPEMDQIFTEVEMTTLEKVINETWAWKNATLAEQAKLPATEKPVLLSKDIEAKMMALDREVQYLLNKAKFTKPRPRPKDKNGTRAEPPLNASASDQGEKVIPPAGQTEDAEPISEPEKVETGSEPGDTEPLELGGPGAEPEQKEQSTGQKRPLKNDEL

These are yes or no findings as the source states them, for the method shown. Binding seen in cells or lysates may run through a third protein. Some binding calls cover weakened binding; strength is not graded here.

For the molecule “pre-CV-CDNF (full-length CDNF with C-Venus, BiFC construct) (from UniProt Q49AH0 25-187)”, the binding result in test [1] and in test [2] was “binds” each time.

“Max-CV (transcription factor Max with C-Venus, BiFC construct) (from UniProt P61244 1-160)”: the binding result in test [3] is given as “no binding”.

Turning to “pre-NV-CDNF (full-length CDNF with N-Venus, BiFC construct) (from UniProt Q49AH0 25-187)”, in test [4], the binding result is listed as “binds”.

B1: GRP170-CV (GRP170 with C-Venus, BiFC construct) (protein, UniProt Q9Y4L1 33-999)
chain: LAVMSVDLGSESMKVAIVKPGVPMEIVLNKESRRKTPVIVTLKENERFFGDSAASMAIKNPKATLRYFQHLLGKQADNPHVALYQARFPEHELTFDPQRQTVHFQISSQLQFSPEEVLGMVLNYSRSLAEDFAEQPIKDAVITVPVFFNQAERRAVLQAARMAGLKVLQLINDNTATALSYGVFRRKDINTTAQNIMFYDMGSGSTVCTIVTYQMVKTKEAGMQPQLQIRGVGFDRTLGGLEMELRLRERLAGLFNEQRKGQRAKDVRENPRAMAKLLREANRLKTVLSANADHMAQIEGLMDDVDFKAKVTRVEFEELCADLFERVPGPVQQALQSAEMSLDEIEQVILVGGATRVPRVQEVLLKAVGKEELGKNINADEAAAMGAVYQAAALSKAFKVKPFVVRDAVVYPILVEFTREVEEEPGIHSLKHNKRVLFSRMGPYPQRKVITFNRYSHDFNFHINYGDLGFLGPEDLRVFGSQNLTTVKLKGVGDSFKKYPDYESKGIKAHFNLDESGVLSLDRVESVFETLVEDSAEEESTLTKLGNTISSLFGGGTTPDAKENGTDTVQEEEESPAEGSKDEPGEQVELKEEAEAPVEDGSQPPPPEPKGDATPEGEKATEKENGDKSEAQKPSEKAEAGPEGVAPAPEGEKKQKPARKRRMVEEIGVELVVLDLPDLPEDKLAQSVQKLQDLTLRDLEKQEREKAANSLEAFIFETQDKLYQPEYQEVSTEEQREEISGKLSAASTWLEDEGVGATTVMLKEKLAELRKLCQGLFFRVEERKKWPERLSALDNLLNHSSMFLKGARLIPEMDQIFTEVEMTTLEKVINETWAWKNATLAEQAKLPATEKPVLLSKDIEAKMMALDREVQYLLNKAKFTKPRPRPKDKNGTRAEPPLNASASDQGEKVIPPAGQTEDAEPISEPEKVETGSEPGDTEPLELGGPGAEPEQKEQSTGQKRPLKNDEL
Turning to B1, the binding result in test [2] is “binds”.
